The results in this text go back to article PMC7819943, “Rice protein-binding microarrays: a tool to detect cis-acting elements near promoter regions in rice”.

Chains of the proteins cited; added tags and fusions are not shown.
UniProt Q0JBA9, entry or part of it: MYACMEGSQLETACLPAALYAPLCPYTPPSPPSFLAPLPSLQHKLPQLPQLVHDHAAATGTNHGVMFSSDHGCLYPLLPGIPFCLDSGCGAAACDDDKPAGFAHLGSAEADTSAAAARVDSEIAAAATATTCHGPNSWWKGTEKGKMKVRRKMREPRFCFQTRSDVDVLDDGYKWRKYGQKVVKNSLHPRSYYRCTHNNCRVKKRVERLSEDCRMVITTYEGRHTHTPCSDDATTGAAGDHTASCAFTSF

Some of the results follow.

For this assay, the target named is OsWRKY34 (Oryza sativa, UniProt Q0JBA9 1-250). Put plainly: protein-binding microarray (RPBM); PBS, 2% BSA, 51.3 ng/ul salmon testes DNA, 50 uM zinc acetate, 200 nM TF, 25 C, 1 h; high values mean tight binding. Particulars: protein: recombinant; tags: N-terminal polyhistidine and DsRed monomer fusion (pET32a); label: CyDye5-dUTP incorporated in the synthesized complementary strand; 3' TTTTT single-stranded linker to array surface; dsDNA, one strand shown. In a few lines: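 Binding signal is reported as fluorescence intensity per feature (arbitrary units) from an Axon 4000B scanner. Incubation used 200 nM of each Ni–NTA-purified, N-terminally polyhistidine- and DsRed-fused transcription factor from E. coli BL21-CodonPlus on a double-stranded custom Agilent array for 1 h at 25 °C, with 50 µM zinc acetate in the buffer, followed by washing.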
For the sequence “TGTTTGCTTGCTTGATTGGTCCCTTGTCTTGTTATTAGTCCGGAGTCACCTAGTGCAG”, the binding signal is 8460 fluorescence intensity (a.u.). In the case of “TTTCCTGGGCCTATAAATTCGGCATCACGCCCAACGCATCCGGAGTCACCTAGTGCAG” it was 8140 fluorescence intensity (a.u.); in that of “GTCGCTTGTAACTTGTAAGGCGTGTGACTGTTGCCGTGATCGGAGTCACCTAGTGCAG”, 9070 fluorescence intensity (a.u.); in that of “GGTTTGATATGAGCCTGTCAACATGTCCCTGCTAAGCTTACGGAGTCACCTAGTGCAG”, 9080 fluorescence intensity (a.u.). On to “CTCTCACCCTGCCCCGTCCGTAATCCCGTCCCGTTCCGTTCGGAGTCACCTAGTGCAG”, for which the binding signal is 8290 fluorescence intensity (a.u.). As to “TTCTAATATACTGAAGTTACTGTTTCATTTGTTTTTAGACCGGAGTCACCTAGTGCAG”, the binding signal was 8330 fluorescence intensity (a.u.). “GGTCTCCGGCGTCCACACCATCTACTACGAGCAGTCCGGGCGGAGTCACCTAGTGCAG”: the binding signal was 10500 fluorescence intensity (a.u.). In the case of “GCTCCAGCCTCCGCTCATCCCAAGCCTTCCACCACAACCCCGGAGTCACCTAGTGCAG” it was 8340 fluorescence intensity (a.u.); in that of “TAACTCAATTCATCCACCCATGCTCAATCTTGTACGGGCGCGGAGTCACCTAGTGCAG”, 12100 fluorescence intensity (a.u.); in that of “TACTCCATCCCACTTCGTTGTCATCTCTGATGAATCTTTTCGGAGTCACCTAGTGCAG”, 8950 fluorescence intensity (a.u.). The result for “AAAATTTTTCACCCTGTCATATCATATGTTTCGATATATGCGGAGTCACCTAGTGCAG” reads 12200 fluorescence intensity (a.u.). In the case of “CACCGTTCTCTCCTTGGCAAACAACTTCTTCTTTGGCGAGCGGAGTCACCTAGTGCAG” it was 8780 fluorescence intensity (a.u.); in that of “GATCTGTGCCTATCAGCGCTGTTCGTCGTCGTCCTCTCCACGGAGTCACCTAGTGCAG”, 9820 fluorescence intensity (a.u.); in that of “AATCATTTACTTCCCGTGTATTTTTGTCAATAATGGTATCCGGAGTCACCTAGTGCAG”, 13800 fluorescence intensity (a.u.). As for “AGGTATAATGGTTTGTGTTCTGCTTGTTATGTGTGGGGTGCGGAGTCACCTAGTGCAG”, the binding signal is 9500 fluorescence intensity (a.u.).

Regarding “AGCTGACATGTGTTCCCCATGTGTTTTTTTAATTTTTTTTCGGAGTCACCTAGTGCAG”, the binding signal was 8560 fluorescence intensity (a.u.).

On to “CCCATCCATTCTCGCCGAGCCACCCATTCCGCCACCTCCACGGAGTCACCTAGTGCAG”, for which the binding signal is 10500 fluorescence intensity (a.u.).

Turning to “AGCCTTTGTCGCAATGCATCCTCTAGCTTAATTTACTTATCGGAGTCACCTAGTGCAG”, the binding signal is 9780 fluorescence intensity (a.u.). In the case of “TTACAGTTAATCTGTAACATTTTTTTTTGCGGGGAAGTTACGGAGTCACCTAGTGCAG”, the binding signal is 9450 fluorescence intensity (a.u.). As to “TCGTGTGTGCGCAACTGTTTATATGCACGTGTAGCTGCTTCGGAGTCACCTAGTGCAG”, the binding signal is 8030 fluorescence intensity (a.u.). In the case of “ATCTCCCCTGCCGTCCTCACTGCTCCTGCGCTTGTGACTTCGGAGTCACCTAGTGCAG” it was 9130 fluorescence intensity (a.u.). In the case of “CTTCTGCTGTCTGTGTACATGGGCCGCCTTCTATCTACGACGGAGTCACCTAGTGCAG” it was 8360 fluorescence intensity (a.u.). Regarding “TCCGCCCGGGCCTCGCCGTCAAGCTCATCTCCACCCCGCGCGGAGTCACCTAGTGCAG”, the binding signal is 8050 fluorescence intensity (a.u.). In the case of “CCTTTAATTGTTTTCTGAATTTCATACTATAAGGCATATTCGGAGTCACCTAGTGCAG” it was 8230 fluorescence intensity (a.u.).

As for “TTATATTTAAGTGGGGTCATTTCTCTAATTTTTTTGAATTCGGAGTCACCTAGTGCAG”, the binding signal was 10200 fluorescence intensity (a.u.).

On to “ATATTATAAGTTGTTTTGACTTTTTGCTAGTCAAACTTATCGGAGTCACCTAGTGCAG”, for which the binding signal was 14200 fluorescence intensity (a.u.). The result for “ATTGTGTGTATTAAATAGTTTTCTATACGAAAGTTGTCTTCGGAGTCACCTAGTGCAG” reads 9990 fluorescence intensity (a.u.); that for “TACATTATCCCGTGTTGTTGGTTATATGCTTGGTTTTATGCGGAGTCACCTAGTGCAG”, 9240 fluorescence intensity (a.u.). For “GCTGCAATTTCTTGATTTCTTCCCAACCACAAGCCATTCGCGGAGTCACCTAGTGCAG”, the binding signal was 8120 fluorescence intensity (a.u.).

Consider “GTCGCAATTCTTTGATTCCCTTCGCGGAATTTTTCTTTCTCGGAGTCACCTAGTGCAG”, for which the binding signal was 9090 fluorescence intensity (a.u.). The result for “ATCGGGCTTAGCGTCTCCACTCGTGTTCGTGTTGGTTCCTCGGAGTCACCTAGTGCAG” reads 8360 fluorescence intensity (a.u.). The result for “TGTTGTTTCTCTCTCTGTCTCGCTGTCTGTTGCCACCATTCGGAGTCACCTAGTGCAG” reads 12300 fluorescence intensity (a.u.); that for “GATTGGTCTCATTTGTGTTCGCGAAAAAATTTTCCATGGACGGAGTCACCTAGTGCAG”, 10800 fluorescence intensity (a.u.); that for “ATGCTTGTGCAGTTGTGTTATTTGTTGCTCCAAACCACTACGGAGTCACCTAGTGCAG”, 9730 fluorescence intensity (a.u.).

On to “ACAGGGCGGGGTGCGGTTAGATCCATGGAGATATGGAGATCGGAGTCACCTAGTGCAG”, for which the binding signal is 11100 fluorescence intensity (a.u.).

Regarding “GATATGTGGGTCAGGATGGTATATATCAAATTTTGCAAAACGGAGTCACCTAGTGCAG”, the binding signal was 8860 fluorescence intensity (a.u.). The result for “TCCGCCGCGGGGCCCACGGAGCAGTGGGTGGGTGGGGCCCCGGAGTCACCTAGTGCAG” reads 9770 fluorescence intensity (a.u.); that for “CCACCTCGATCGTCAAATCCTCTAGCTTGTCTTTTGTTTTCGGAGTCACCTAGTGCAG”, 12400 fluorescence intensity (a.u.). As to “TCCTATGTTCTTTTTTCCTATTTATGTGTTTTCCATTCCTCGGAGTCACCTAGTGCAG”, the binding signal was 10600 fluorescence intensity (a.u.).

For “ATTCCTTGCTTCCACAGCCACCAAAAGTAAAACCACCCGGCGGAGTCACCTAGTGCAG”, the binding signal is 8240 fluorescence intensity (a.u.).

As to “ACTTCTATTTTCGTCTACACCACAGTCGCCGCCGCCATTACGGAGTCACCTAGTGCAG”, the binding signal was 8560 fluorescence intensity (a.u.). In the case of “CTTGCAGGCTGAAATTTACTGGTAATGGCGTTTCTGGTCCCGGAGTCACCTAGTGCAG” it was 9130 fluorescence intensity (a.u.).
